From patent publication US20190290576A1, “ANTI-MALARIAL PHARMACEUTICAL COMPOSITION” (Protopharma Limited, priority 2007, published 2019)
For part of these data: At least one read-out could not be matched to a standard name with certainty. For part of these data: For at least one compound, name, drawing or mass did not settle the structure.

Columns and labels:
[1] = Solubility trial: dissolution of artemether in miglyol with menthol; type: physicochemical
[2] = Single-dose bioavailability study, sublingual spray vs oral tablet, plasma artemether and dihydroartemesinin; type: in vivo, human; conditions: equivalent doses
[3] = Storage stability of artemether in solvent systems, impurities by HPLC; type: physicochemical; conditions: % of HPLC peak area of artemether
Text: Tables 1 and 2 show impurities present in Artemether API, and artemether in three solvent systems: 20% ethanol+80% propellant; 50% ethanol+50% propellant; 100% ethanol; and a medium chain triglyceride, in this case, the triglyceride sold under the registered trade mark Miglyol® 810. Miglyol® is a medium chain triglyceride containing saturated C8 and C10 fatty acids, typically between 65-80% of caprylic acid (C8:0) and 20-35% of capric acid (C10:0). The propellant used in these test was 1,1,1,2 tetrafluoroethane, sold under the registered trade mark Zephex® 134a. Similar results were obtained for the propellants butane, Zephex® 227 (1,1,1,2,3,3,3 heptafluoropropane) and for a mixture of butane and propane. […] In all other cases, the impurities are at levels that exceed those permitted under the ICH Harmonised Tripartite Guidelines for Impurities in New Drug Products without specific identification or further toxicological examination.

[4] = storage at 30° C. for eight weeks
[5] = storage at 40° C. for eight weeks

## CO[C@H]1O[C@@H]2O[C@@]3(C)CC[C@H]4[C@H](C)CC[C@@H]([C@H]1C)[C@@]24OO3 [artemether]
[1]; artemether added before menthol
  Time to dissolution of artemether in miglyol: 5 minutes 55 seconds
[1]; menthol added before artemether
  Time to dissolution of artemether in miglyol: 4 minutes 30 seconds
[2]
  indicative bioavailability by the sublingual route relative to the oral route: at least twice
[3]; [4]
  Impurity at Relative Retention Time 0.35, % of artemether: 0.4 % of artemether
  Impurity at Relative Retention Time 0.73, % of artemether: 0.1 % of artemether
  Impurity at Relative Retention Time 0.87, % of artemether: 0.2 % of artemether
[3]; [5]
  Impurity at Relative Retention Time 0.35, % of artemether: 0.4 % of artemether
  Impurity at Relative Retention Time 0.73, % of artemether: 0.1 % of artemether
  Impurity at Relative Retention Time 0.87, % of artemether: 0.2 % of artemether
